From paper PMC10570038 come the findings set out here.

Results are given in words; binding and its absence hold for the method and conditions named. Binding seen in cells or lysates may run through a third protein. A result given as binding can be weak or reduced; the word gives no strength.

First the molecules themselves.
B1: MATR3 (protein, UniProt P43243 1-847)
chain: MSKSFQQSSLSRDSQGHGRDLSAAGIGLLAAATQSLSMPASLGRMNQGTARLASLMNLGMSSSLNQQGAHSALSSASTSSHNLQSIFNIGSRGPLPLSSQHRGDADQASNILASFGLSARDLDELSRYPEDKITPENLPQILLQLKRRRTEEGPTLSYGRDGRSATREPPYRVPRDDWEEKRHFRRDSFDDRGPSLNPVLDYDHGSRSQESGYYDRMDYEDDRLRDGERCRDDSFFGETSHNYHKFDSEYERMGRGPGPLQERSLFEKKRGAPPSSNIEDFHGLLPKGYPHLCSICDLPVHSNKEWSQHINGASHSRRCQLLLEIYPEWNPDNDTGHTMGDPFMLQQSTNPAPGILGPPPPSFHLGGPAVGPRGNLGAGNGNLQGPRHMQKGRVETSRVVHIMDFQRGKNLRYQLLQLVEPFGVISNHLILNKINEAFIEMATTEDAQAAVDYYTTTPALVFGKPVRVHLSQKYKRIKKPEGKPDQKFDQKQELGRVIHLSNLPHSGYSDSAVLKLAEPYGKIKNYILMRMKSQAFIEMETREDAMAMVDHCLKKALWFQGRCVKVDLSEKYKKLVLRIPNRGIDLLKKDKSRKRSYSPDGKESPSDKKSKTDGSQKTESSTEGKEQEEKSGEDGEKDTKDDQTEQEPNMLLESEDELLVDEEEAAALLESGSSVGDETDLANLGDVASDGKKEPSDKAVKKDGSASAAAKKKLKKVDKIEELDQENEAALENGIKNEENTEPGAESSENADDPNKDTSENADGQSDENKDDYTIPDEYRIGPYQPNVPVGIDYVIPKTGFYCKLCSLFYTNEEVAKNTHCSSLPHYQKLKKFLNKLAEERRQKKET
B2: RBFOX2 (protein, UniProt O43251 1-390)
chain: MQNEPLTPGYHGFPARDSQGNQEPTTTPDAMVQPFTTIPFPPPPQNGIPTEYGVPHTQDYAGQTGEHNLTLYGSTQAHGEQSSNSPSTQNGSLTTEGGAQTDGQQSQTQSSENSESKSTPKRLHVSNIPFRFRDPDLRQMFGQFGKILDVEIIFNERGSKGFGFVTFENSADADRAREKLHGTVVEGRKIEVNNATARVMTNKKMVTPYANGWKLSPVVGAVYGPELYAASSFQADVSLGNDAAVPLSGRGGINTYIPLISLPLVPGFPYPTAATTAAAFRGAHLRGRGRTVYGAVRAVPPTAIPAYPGVVYQDGFYGADLYGGYAAYRYAQPATATAATAAAAAAAAYSDGYGRVYTADPYHALAPAASYGVGAVASLYRGGYSRFAPY
B3: ESRP2 (protein, UniProt Q9H6T0 1-727)
chain: MTPPPPPPPPPGPDPAADPAADPCPWPGSLVVLFGATAGALGRDLGSDETDLILLVWQVVEPRSRQVGTLHKSLVRAEAAALSTQCREASGLSADSLARAEPLDKVLQQFSQLVNGDVALLGGGPYMLCTDGQQLLRQVLHPEASRKNLVLPDMFFSFYDLRREFHMQHPSTCPARDLTVATMAQGLGLETDATEDDFGVWEVKTMVAVILHLLKEPSSQLFSKPEVIKQKYETGPCSDSTVPCPYSSKADVVDSETVVRARGLPWQSSDQDVARFFKGLNVARGGVALCLNAQGRRNGEALIRFVDSEQRDLALQRHKHHMGVRYIEVYKATGEEFVKIAGGTSLEVARFLSREDQVILRLRGLPFSAGPTDVLGFLGPECPVTGGTEGLLFVRHPDGRPTGDAFALFACEELAQAALRRHKGMLGKRYIELFRSTAAEVQQVLNRYASGPLLPTLTAPLLPIPFPLAPGTGRDCVRLRGLPYTATIEDILSFLGEAAADIRPHGVHMVLNQQGRPSGDAFIQMTSAERALAAAQRCHKKVMKERYVEVVPCSTEEMSRVLMGGTLGRSGMSPPPCKLPCLSPPTYTTFQATPTLIPTETAALYPSSALLPAARVPAAPTPVAYYPGPATQLYLNYTAYYPSPPVSPTTVGYLTTPTAALASAPTSVLSQSGALVRMQGVPYTAGMKDLLSVFQAYQLPADDYTSLMPVGDPPRTVLQAPKEWVCL
B4: RBM14 (protein, UniProt Q96PK6 1-669)
chain: MKIFVGNVDGADTTPEELAALFAPYGTVMSCAVMKQFAFVHMRENAGALRAIEALHGHELRPGRALVVEMSRPRPLNTWKIFVGNVSAACTSQELRSLFERRGRVIECDVVKDYAFVHMEKEADAKAAIAQLNGKEVKGKRINVELSTKGQKKGPGLAVQSGDKTKKPGAGDTAFPGTGGFSATFDYQQAFGNSTGGFDGQARQPTPPFFGRDRSPLRRSPPRASYVAPLTAQPATYRAQPSVSLGAAYRAQPSASLGVGYRTQPMTAQAASYRAQPSVSLGAPYRGQLASPSSQSAAASSLGPYGGAQPSASALSSYGGQAAAASSLNSYGAQGSSLASYGNQPSSYGAQAASSYGVRAAASSYNTQGAASSLGSYGAQAASYGAQSAASSLAYGAQAASYNAQPSASYNAQSAPYAAQQAASYSSQPAAYVAQPATAAAYASQPAAYAAQATTPMAGSYGAQPVVQTQLNSYGAQASMGLSGSYGAQSAAAATGSYGAAAAYGAQPSATLAAPYRTQSSASLAASYAAQQHPQAAASYRGQPGNAYDGAGQPSAAYLSMSQGAVANANSTPPPYERTRLSPPRASYDDPYKKAVAMSKRYGSDRRLAELSDYRRLSESQLSFRRSPTKSSLDYRRLPDAHSDYARYSGSYNDYLRAAQMHSGYQRRM

This experiment concerns the target StrepII-His6-RBPMS-A ΔC20 (rat). Kind of experiment: pull-down; 2 μM StrepII-His6-RBPMS variant in 60% HeLa NE, 2.2 mM MgCl2, 2.6% PVA, 30°C 15 min; MagStrep 'type3' XT beads; six washes with 150 mM KCl buffer; elution with biotin; immunoblot; only the target purified. A general note: In western blotting, separated proteins are transferred to a membrane and probed.
As for B1, the binding entry is listed as “no binding (tested: 2 μM StrepII-His6-RBPMS)”. As to B2, the binding result is on record as “no binding (tested: 2 μM StrepII-His6-RBPMS)”. Regarding B3, the binding entry was “no binding (tested: 2 μM StrepII-His6-RBPMS)”. The same measure for B4: “binds”.
